The record followed here is PMC9215249.

The chains behind the UniProt entries cited, without tags or fusion partners.
UniProt Q7Z434: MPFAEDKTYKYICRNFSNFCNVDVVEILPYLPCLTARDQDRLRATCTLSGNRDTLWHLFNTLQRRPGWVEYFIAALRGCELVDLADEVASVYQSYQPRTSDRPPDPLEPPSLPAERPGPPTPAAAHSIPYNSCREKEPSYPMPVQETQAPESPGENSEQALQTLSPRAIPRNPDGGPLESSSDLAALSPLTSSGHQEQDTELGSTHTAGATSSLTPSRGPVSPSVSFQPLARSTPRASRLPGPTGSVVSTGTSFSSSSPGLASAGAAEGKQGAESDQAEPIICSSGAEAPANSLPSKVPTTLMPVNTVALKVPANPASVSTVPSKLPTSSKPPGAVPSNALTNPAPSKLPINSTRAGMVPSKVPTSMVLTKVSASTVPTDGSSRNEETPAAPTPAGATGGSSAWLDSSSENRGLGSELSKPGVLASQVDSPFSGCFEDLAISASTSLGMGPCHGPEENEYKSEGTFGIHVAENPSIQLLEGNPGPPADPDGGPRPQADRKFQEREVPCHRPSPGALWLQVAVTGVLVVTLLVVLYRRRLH

No constants are given. Whether binding was seen depends on the method and setting. In cells and extracts the contact can be indirect. Some binding calls cover weakened binding; strength is not graded here. For some of these results: Tags and fused reporters may be left off the sequences shown.

The target of test [1] is T1, annexin-A1 (ANXA1), endogenous (human (endogenous in HeLa and HEK293T)) (UniProt P04083).
T1 sequence: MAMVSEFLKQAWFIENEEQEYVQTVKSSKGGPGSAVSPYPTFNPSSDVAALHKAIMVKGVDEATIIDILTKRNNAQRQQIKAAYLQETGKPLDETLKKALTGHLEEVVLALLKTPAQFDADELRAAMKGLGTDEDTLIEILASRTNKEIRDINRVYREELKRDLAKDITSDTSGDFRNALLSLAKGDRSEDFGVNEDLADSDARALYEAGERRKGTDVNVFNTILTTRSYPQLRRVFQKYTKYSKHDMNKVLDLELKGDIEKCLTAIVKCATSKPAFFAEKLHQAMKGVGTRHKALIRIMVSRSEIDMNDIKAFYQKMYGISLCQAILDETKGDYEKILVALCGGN
Description: co-IP; endogenous proteins in HEK293T cell lysates; IP with anti-ANXA1 antibody.

Test [2] concerns the target T1, annexin-A1 (ANXA1), endogenous (human (endogenous in HeLa and HEK293T)). Description: co-IP; endogenous proteins in HeLa cell lysates; IP with anti-ANXA1, anti-VISA or anti-TBK1 antibodies, immunoblot. A general note: In western blotting, separated proteins are transferred to a membrane and probed.
The target of test [3] is T2, myc-ANXA1 (porcine (cDNA from PK15 cells)) (UniProt P19619).
T2 sequence: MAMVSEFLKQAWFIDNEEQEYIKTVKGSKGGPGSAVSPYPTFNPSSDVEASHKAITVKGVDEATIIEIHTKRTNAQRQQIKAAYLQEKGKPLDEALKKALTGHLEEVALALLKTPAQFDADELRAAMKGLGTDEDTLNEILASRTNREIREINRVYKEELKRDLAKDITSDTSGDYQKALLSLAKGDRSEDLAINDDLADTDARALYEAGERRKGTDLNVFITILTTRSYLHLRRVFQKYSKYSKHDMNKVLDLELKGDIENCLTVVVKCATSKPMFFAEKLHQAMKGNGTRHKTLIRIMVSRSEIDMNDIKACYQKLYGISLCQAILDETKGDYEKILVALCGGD
Description: co-IP.

For “STAT1, endogenous (from UniProt P42224 1-750)”, in test [1], the binding entry was “binds”.

For the molecule “VISA, endogenous (from UniProt Q7Z434 1-540)”, the binding entry in test [2] is recorded as “binds”.

B1: Flag-STAT1 (protein, UniProt Q764M5 1-753)
chain: MSQWYELQQLDSKFLEQVHQLYDDSFPMEIRQYLAQWLENQDWEHAANDVSFATIRFHDLLSQLDDQYSRFSLENNFLLQHNIRKSKRNLQDNFQEDPIQMSMIICNCLKEERKILENAQRFNQTQSGNIQSTVMLDKHKELDSKVRNVKDKVMCIEHEIKTLEDLQDEYDFKCKTLQNREHDTNGVAKNDQKQEQMLLQKMYLMLDNKRKEVVHKIIELLNVTELTQKALINDELVEWKRRQQSACIGGPPNACLDQLQNWFTIVAESLQQVRQQLKKLEELEQKYTYEHDPITKNKQALWDRTFSLFQQLIQSSFVVERQPCMPTHPQRPLVLKTGVQFTVKLRLLVKLQELNYNLKVKVLFDKDVSERNTVKGFRKFNILGTHTKVMNMEESTNGSLAAEFRHLQLKEQKNAGARTNEGPLIVTEELHSLSFETQLCQPGLVIDLETTSLPVVVISNVSQLPSGWASILWYNMLVAEPRNLSFFLNPPCARWSQLSEVLSWQFSSVTKRGLNVDQLNMLGEKLLGPTAGPDGLIPWTRFCKENINDKNFPFWLWIESILELIKKHLLSLWNDGCIVGFISKERERALLKDQQPGTFLLRFSESCREGAITFTWVERSQNGGEPYFHAVEPYTKKELSAVTFPDIIRNYKVMAAENIPENPLKYLYPNIDKDHAFGKYYSRPKEAPEPMELDGPKGTGYIKTELISVSEVHPSRLQTTDNLLPMSPEEFDEVSRMVGPVEFDMVSMTRGRS
On to B1, for which the binding entry in test [3] was “binds”.

B2: TBK1, endogenous (protein, UniProt Q9UHD2 1-729)
chain: MQSTSNHLWLLSDILGQGATANVFRGRHKKTGDLFAIKVFNNISFLRPVDVQMREFEVLKKLNHKNIVKLFAIEEETTTRHKVLIMEFCPCGSLYTVLEEPSNAYGLPESEFLIVLRDVVGGMNHLRENGIVHRDIKPGNIMRVIGEDGQSVYKLTDFGAARELEDDEQFVSLYGTEEYLHPDMYERAVLRKDHQKKYGATVDLWSIGVTFYHAATGSLPFRPFEGPRRNKEVMYKIITGKPSGAISGVQKAENGPIDWSGDMPVSCSLSRGLQVLLTPVLANILEADQEKCWGFDQFFAETSDILHRMVIHVFSLQQMTAHKIYIHSYNTATIFHELVYKQTKIISSNQELIYEGRRLVLEPGRLAQHFPKTTEENPIFVVSREPLNTIGLIYEKISLPKVHPRYDLDGDASMAKAITGVVCYACRIASTLLLYQELMRKGIRWLIELIKDDYNETVHKKTEVVITLDFCIRNIEKTVKVYEKLMKINLEAAELGEISDIHTKLLRLSSSQGTIETSLQDIDSRLSPGGSLADAWAHQEGTHPKDRNVEKLQVLLNCMTEIYYQFKKDKAERRLAYNEEQIHKFDKQKLYYHATKAMTHFTDECVKKYEAFLNKSEEWIRKMLHLRKQLLSLTNQCFDIEEEVSKYQEYTNELQETLPQKMFTASSGIKHTMTPIYPSSNTLVEMTLGMKKLKEEMEGVVKELAENNHILERFGSLTMDGGLRNVDCL
Turning to B2, the binding result in test [2] is “binds”.
